Results on five substances are retold here after article PMC4646279.

Amino acid sequences for entries named in this document (tags omitted). Residues count along the entry.
UniProt P17655, residues 20-700: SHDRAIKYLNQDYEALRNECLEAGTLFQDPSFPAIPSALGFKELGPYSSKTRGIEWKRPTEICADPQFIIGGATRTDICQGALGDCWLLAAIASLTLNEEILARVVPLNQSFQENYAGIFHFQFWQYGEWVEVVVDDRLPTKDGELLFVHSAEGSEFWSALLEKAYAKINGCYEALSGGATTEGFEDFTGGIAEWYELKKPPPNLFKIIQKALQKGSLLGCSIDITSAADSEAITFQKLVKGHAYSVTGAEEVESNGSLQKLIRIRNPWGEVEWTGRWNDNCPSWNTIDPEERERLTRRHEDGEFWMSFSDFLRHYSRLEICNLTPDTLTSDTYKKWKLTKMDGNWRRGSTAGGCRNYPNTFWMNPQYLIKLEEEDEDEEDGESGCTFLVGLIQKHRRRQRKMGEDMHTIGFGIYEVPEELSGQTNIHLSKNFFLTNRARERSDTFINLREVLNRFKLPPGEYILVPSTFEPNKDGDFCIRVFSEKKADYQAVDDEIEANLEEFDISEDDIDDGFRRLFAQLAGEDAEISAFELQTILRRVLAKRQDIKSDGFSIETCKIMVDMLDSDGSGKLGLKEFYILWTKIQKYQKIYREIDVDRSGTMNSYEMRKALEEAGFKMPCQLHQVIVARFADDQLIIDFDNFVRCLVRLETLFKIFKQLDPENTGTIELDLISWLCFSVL
UniProt P07384: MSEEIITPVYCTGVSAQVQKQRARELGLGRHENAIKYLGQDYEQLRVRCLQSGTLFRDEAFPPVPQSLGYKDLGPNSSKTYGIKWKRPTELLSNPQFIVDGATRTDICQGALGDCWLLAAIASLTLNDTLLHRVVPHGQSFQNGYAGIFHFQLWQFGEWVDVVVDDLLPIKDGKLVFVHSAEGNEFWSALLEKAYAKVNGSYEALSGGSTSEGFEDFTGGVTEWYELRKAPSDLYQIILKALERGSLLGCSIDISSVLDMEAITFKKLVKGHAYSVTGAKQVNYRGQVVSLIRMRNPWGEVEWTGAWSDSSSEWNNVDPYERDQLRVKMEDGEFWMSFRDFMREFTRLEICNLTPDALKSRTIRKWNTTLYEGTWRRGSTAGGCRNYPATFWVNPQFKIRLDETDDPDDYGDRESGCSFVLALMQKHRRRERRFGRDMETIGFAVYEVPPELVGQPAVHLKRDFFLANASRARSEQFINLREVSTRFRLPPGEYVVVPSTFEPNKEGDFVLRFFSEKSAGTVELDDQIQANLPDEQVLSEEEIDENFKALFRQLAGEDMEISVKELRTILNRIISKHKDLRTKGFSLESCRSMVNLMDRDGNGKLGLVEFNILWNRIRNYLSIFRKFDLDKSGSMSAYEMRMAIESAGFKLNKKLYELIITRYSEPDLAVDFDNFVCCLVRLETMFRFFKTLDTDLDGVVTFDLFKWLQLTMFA
UniProt Q15046: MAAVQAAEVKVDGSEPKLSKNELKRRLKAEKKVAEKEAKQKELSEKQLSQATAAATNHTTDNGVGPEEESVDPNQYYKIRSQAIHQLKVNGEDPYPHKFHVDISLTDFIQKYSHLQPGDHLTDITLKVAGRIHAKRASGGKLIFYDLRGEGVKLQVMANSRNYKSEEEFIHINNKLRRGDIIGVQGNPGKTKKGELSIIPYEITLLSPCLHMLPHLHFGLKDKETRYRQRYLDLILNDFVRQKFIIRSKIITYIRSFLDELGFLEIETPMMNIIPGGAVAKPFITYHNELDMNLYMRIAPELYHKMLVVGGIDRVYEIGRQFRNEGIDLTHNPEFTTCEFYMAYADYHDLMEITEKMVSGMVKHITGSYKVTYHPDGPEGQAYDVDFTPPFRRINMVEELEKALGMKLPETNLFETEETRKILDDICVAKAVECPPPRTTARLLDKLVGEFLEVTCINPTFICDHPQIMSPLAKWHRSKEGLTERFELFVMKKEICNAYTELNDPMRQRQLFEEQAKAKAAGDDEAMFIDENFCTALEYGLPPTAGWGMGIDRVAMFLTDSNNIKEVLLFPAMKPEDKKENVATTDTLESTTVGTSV
UniProt P41252: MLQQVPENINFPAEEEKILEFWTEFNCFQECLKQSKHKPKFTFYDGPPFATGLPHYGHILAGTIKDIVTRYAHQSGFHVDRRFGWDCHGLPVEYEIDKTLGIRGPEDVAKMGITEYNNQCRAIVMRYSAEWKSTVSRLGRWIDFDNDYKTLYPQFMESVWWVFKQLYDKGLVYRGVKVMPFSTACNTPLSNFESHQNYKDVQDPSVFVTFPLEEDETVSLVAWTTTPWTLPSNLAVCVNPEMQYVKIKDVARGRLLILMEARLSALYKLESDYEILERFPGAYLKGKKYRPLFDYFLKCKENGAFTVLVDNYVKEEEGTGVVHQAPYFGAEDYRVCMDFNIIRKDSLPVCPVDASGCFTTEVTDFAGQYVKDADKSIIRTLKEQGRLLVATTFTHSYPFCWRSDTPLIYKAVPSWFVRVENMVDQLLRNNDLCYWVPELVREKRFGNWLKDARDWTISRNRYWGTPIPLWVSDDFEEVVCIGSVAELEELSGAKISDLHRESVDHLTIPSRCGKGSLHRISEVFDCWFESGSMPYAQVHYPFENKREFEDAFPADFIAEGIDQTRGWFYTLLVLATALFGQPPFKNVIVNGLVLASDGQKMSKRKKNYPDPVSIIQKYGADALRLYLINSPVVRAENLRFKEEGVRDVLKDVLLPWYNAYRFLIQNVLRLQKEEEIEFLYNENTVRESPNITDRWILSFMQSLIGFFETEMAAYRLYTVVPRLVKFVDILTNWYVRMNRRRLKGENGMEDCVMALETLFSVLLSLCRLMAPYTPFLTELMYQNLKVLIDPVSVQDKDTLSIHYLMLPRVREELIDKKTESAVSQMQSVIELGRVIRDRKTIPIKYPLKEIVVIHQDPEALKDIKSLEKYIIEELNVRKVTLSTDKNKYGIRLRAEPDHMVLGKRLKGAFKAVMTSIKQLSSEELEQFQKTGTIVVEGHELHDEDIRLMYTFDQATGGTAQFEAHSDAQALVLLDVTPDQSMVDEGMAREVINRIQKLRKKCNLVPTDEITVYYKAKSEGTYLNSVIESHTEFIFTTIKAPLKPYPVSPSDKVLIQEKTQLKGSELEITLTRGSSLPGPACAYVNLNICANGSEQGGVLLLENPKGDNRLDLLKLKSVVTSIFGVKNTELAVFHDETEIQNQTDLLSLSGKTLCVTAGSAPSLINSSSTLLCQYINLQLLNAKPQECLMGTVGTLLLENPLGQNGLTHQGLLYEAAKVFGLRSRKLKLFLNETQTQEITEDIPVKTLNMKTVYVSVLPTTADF
UniProt P07814: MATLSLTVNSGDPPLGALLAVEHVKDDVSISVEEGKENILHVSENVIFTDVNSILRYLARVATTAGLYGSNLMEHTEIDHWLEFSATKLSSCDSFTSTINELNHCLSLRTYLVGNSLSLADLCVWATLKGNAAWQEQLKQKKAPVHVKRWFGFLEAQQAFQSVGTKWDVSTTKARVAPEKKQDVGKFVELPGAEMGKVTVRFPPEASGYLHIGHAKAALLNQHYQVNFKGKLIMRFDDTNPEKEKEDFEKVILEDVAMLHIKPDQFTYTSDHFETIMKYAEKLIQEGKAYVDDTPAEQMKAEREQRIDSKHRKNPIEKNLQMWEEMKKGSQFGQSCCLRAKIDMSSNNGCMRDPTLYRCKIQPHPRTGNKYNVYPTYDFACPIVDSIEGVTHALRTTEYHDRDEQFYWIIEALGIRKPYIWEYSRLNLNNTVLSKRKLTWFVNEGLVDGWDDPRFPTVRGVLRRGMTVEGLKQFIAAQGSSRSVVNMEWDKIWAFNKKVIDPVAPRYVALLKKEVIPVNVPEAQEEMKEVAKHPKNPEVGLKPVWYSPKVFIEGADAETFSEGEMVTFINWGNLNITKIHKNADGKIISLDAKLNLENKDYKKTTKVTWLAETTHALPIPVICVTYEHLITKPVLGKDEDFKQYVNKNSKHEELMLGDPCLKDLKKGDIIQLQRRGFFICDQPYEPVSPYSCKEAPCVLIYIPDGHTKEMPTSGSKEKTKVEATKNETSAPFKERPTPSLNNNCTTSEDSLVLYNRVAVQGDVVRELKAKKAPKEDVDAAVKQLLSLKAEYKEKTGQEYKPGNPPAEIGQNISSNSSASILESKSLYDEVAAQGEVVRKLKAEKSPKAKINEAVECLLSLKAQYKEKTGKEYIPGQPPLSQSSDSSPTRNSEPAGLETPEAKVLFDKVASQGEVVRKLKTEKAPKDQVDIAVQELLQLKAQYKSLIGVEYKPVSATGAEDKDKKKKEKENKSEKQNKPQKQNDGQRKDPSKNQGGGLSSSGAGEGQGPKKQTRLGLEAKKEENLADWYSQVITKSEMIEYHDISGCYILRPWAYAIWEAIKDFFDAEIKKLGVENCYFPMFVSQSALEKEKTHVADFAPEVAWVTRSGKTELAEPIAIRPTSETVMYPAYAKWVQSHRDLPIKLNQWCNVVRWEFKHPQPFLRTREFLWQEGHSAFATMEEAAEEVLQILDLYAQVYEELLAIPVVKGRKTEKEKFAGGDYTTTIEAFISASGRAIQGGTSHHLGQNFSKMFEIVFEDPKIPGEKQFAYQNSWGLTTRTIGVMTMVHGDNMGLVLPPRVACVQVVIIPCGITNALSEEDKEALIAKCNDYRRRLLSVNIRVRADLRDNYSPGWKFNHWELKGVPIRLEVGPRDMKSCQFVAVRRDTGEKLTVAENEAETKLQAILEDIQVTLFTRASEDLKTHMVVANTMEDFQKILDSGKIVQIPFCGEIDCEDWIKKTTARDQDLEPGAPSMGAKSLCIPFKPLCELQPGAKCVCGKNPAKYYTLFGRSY
UniProt Q9P2J5: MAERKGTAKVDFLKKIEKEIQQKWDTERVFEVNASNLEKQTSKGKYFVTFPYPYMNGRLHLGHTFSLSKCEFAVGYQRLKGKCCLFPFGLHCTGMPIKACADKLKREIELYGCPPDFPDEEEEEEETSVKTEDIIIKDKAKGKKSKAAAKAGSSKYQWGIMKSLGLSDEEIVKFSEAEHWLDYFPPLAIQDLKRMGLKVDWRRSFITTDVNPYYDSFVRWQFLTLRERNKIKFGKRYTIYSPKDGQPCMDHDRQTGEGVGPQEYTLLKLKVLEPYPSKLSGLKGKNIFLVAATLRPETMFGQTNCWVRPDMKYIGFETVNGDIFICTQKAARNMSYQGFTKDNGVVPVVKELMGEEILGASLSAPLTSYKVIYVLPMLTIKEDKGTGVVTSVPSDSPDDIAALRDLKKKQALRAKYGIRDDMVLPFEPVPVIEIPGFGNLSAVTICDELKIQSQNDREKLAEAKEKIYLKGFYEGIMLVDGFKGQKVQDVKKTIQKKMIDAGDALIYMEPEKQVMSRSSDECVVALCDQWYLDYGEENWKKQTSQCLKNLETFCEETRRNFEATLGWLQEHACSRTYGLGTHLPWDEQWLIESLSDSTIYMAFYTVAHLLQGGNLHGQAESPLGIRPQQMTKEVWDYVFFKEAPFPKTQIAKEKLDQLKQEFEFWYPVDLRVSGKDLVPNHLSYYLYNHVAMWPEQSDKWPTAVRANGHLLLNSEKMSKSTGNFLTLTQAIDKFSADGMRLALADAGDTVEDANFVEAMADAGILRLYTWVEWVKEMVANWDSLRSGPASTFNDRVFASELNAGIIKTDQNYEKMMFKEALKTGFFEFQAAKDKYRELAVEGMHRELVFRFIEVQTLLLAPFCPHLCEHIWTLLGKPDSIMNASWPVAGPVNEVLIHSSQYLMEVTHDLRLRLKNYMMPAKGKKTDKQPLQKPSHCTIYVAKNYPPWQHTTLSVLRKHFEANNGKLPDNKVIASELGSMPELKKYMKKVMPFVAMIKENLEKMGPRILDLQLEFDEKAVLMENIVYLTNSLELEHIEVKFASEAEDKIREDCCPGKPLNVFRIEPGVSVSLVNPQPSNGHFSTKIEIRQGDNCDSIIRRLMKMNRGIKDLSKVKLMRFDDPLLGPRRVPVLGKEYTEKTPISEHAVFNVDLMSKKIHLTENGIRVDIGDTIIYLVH

Results are given in words; binding and its absence hold for the method and conditions named. In cells and extracts the contact can be indirect. Some binding calls cover weakened binding; strength is not graded here. For some assays here: Tags and fused reporters may be left off the sequences shown.

Test [1] concerns the target FLAG-calpain 2 (human) (UniProt P17655). As to the kind of experiment: co-IP; FLAG-calpain 2 or FLAG-calpain 1 overexpressed in 293T; IP with anti-FLAG antibody, Western blot with antibodies against endogenous MSC components; mouse IgG as negative control.
Another test deals with FLAG-calpain 1 (human) (UniProt P07384). The description is as above.
In test [2] the target is T1, p43ΔN106 with C-terminal FLAG tag (human) (UniProt Q12904).
T1 sequence: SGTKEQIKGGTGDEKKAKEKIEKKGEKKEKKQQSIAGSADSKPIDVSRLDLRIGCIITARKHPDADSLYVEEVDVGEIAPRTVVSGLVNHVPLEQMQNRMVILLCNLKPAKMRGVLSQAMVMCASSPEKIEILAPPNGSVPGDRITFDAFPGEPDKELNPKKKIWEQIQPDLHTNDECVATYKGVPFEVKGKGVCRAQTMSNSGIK
As to the kind of experiment: co-IP; 293T extracts overexpressing FLAG-tagged full-length or truncated ArgRS, p43 or GlnRS; IP with FLAG antibody, Western blot with antibodies against MSC components.

The target of test [3] is T2, p43-N106 with C-terminal FLAG tag (human) (UniProt Q12904).
T2 sequence: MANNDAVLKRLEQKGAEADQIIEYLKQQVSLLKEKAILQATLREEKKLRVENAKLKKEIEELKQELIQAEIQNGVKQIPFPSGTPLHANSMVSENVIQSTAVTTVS
The test is described as above.

For the next test, the target named is T3, FLAG-p43 (human) (UniProt Q12904).
T3 sequence: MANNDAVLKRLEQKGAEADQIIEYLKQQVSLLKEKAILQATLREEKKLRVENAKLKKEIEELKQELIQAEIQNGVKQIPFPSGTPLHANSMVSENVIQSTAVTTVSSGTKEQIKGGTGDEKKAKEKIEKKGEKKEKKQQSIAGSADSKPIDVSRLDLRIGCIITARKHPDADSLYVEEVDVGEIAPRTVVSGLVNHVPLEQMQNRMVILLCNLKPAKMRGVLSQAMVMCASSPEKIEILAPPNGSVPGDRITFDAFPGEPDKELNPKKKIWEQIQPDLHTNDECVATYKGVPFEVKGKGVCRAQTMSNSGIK
The test can be described thus: co-IP; MSC purification: 293T transfected with FLAG-ArgRS or FLAG-p43, lysate on anti-FLAG M2 affinity gel 2 h at 4 °C, washed with PBS four times, eluted with 3xFLAG peptides; Coomassie staining and Western blots.

A further test deals with T4, FLAG-ArgRSΔN63 (human) (UniProt P54136).
T4 sequence: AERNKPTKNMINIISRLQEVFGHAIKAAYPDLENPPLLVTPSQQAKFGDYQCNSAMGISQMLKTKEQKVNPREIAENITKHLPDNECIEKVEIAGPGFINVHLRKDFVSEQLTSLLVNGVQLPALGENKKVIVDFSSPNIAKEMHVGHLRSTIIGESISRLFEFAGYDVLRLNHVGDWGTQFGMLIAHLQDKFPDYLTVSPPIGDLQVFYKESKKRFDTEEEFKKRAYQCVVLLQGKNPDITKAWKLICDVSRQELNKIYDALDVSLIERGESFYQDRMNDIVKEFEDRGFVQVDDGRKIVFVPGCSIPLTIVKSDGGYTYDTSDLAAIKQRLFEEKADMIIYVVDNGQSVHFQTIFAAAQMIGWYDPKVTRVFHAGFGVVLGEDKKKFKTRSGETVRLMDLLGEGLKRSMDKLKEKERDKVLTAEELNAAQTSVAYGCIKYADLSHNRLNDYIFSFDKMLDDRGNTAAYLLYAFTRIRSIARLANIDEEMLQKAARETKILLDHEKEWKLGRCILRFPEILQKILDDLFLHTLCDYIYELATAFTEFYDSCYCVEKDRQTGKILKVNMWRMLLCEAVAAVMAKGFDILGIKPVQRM
As to the kind of experiment: co-IP; 293T extracts overexpressing FLAG-tagged full-length or truncated ArgRS, p43 or GlnRS; IP with FLAG antibody, Western blot with antibodies against MSC components.

Test [4] addresses FLAG-calpain 2 (human) (UniProt P17655). As to the kind of experiment: co-IP; FLAG-calpain 2 co-overexpressed with Myc-LeuRS in 293T; clarified lysate, IP with anti-FLAG antibody, Western blot with anti-Myc; mouse IgG as negative control.
The target is the same in test [5]. The test can be described thus: co-IP; data not shown; FLAG-calpain 2 overexpressed in 293T, co-immunoprecipitation.

Regarding “lysyl-tRNA synthetase (LysRS), endogenous (from UniProt Q15046 1-597) (enzyme)”, the binding result is “binds” with FLAG-calpain 2 (human) [1], “binds weakly” in the test with FLAG-calpain 1 (human), “no binding” in test [2] and “binds” in test [3].

Consider “isoleucyl-tRNA synthetase (IleRS), endogenous (from UniProt P41252 1-1262) (enzyme)”, for which, in the test with FLAG-p43 (human), the binding entry is “binds”.

In the case of “glutamylprolyl-tRNA synthetase (EPRS), endogenous (from UniProt P07814 1-1512) (enzyme)”, the binding result is listed as “binds” with FLAG-calpain 2 (human) [1]; “no binding” with FLAG-calpain 1 (human); “no binding” in test [2]; “no binding” with FLAG-ArgRSΔN63 (human); “binds” in test [3]; “binds” in the test with FLAG-p43 (human).

Consider “Myc-LeuRS (from UniProt Q9P2J5 1-1176) (enzyme)”, for which the binding result with FLAG-calpain 2 (human) [4] was “binds”.

Consider “leucyl-tRNA synthetase (LeuRS), endogenous (from UniProt Q9P2J5 1-1176) (enzyme)”, for which the figures for the binding entry in the test with FLAG-calpain 1 (human) and with FLAG-calpain 2 (human) [5] were “no binding” and “binds”, respectively.
